{"source": "the supplement of paper PMC8728848", "binders": {"B1": {"name": "Pbx2CASH domain (Cryptococcus neoformans) (protein)", "chain": "GIPGPNRLYRLSGPIIFTAADQEIATYGYPTGSERAVLRVEGRNTATAIQGDCRRCARVSVKNLVVDGNRKKLGRMRDFQLATGLVVLGGNEGQSIQNSWIKNPRGFTAIHIREGDKLQCSGARVEKNEIGPVGEEYDPEKDGDDPEMSPLGRPLADGVSIACRDSFIRDNTFRDNTDAAIVVYCSPGTLIHA"}}, "assay_in_all_cases": "glycan array binding signal (z-score within array); higher = stronger binding", "details_in_all_cases": "glycan notation: IUPAC condensed, linker removed", "key": {"[1]": {"target": "Fuc(a1-3)[Gal(b1-4)]Glc6S", "method_in_brief": "(§1)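 Arrays were curated from the Consortium for Functional Glycomics database, 3228 in total, and kept only where the protein sequence was available. Binding is expressed as a within-array Z-score. This score was averaged across arrays of the same protein sequence at different concentrations or buffers and across linkers, and negative values can be read as non-binding.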"}, "[2]": {"target": "Fuc(a1-3)[Gal(b1-4)]GlcNAc", "method_in_brief": "as §1"}, "[3]": {"target": "Fuc(a1-3)[Gal(b1-4)]GlcNAc(b1-2)Man", "method_in_brief": "as §1"}, "[4]": {"target": "Fuc(a1-3)[Gal(b1-4)]GlcNAc(b1-2)Man(a1-3)[Fuc(a1-3)[Gal(b1-4)]GlcNAc(b1-2)Man(a1-6)]Man(b1-4)GlcNAc(b1-4)GlcNAc", "method_in_brief": "as §1"}, "[5]": {"target": "Fuc(a1-3)[Gal(b1-4)]GlcNAc(b1-2)Man(a1-3)[Fuc(a1-3)[Gal(b1-4)]GlcNAc(b1-2)Man(a1-6)]Man(b1-4)GlcNAc(b1-4)[Fuc(a1-6)]GlcNAc", "method_in_brief": "as §1"}, "[6]": {"target": "Fuc(a1-3)[Gal(b1-4)]GlcNAc(b1-3)Gal(b1-3)[Fuc(a1-4)]GlcNAc", "method_in_brief": "as §1"}, "[7]": {"target": "Fuc(a1-3)[Gal(b1-4)]GlcNAc(b1-3)GalNAc", "method_in_brief": "as §1"}, "[8]": {"target": "Fuc(a1-3)[Gal(b1-4)]GlcNAc(b1-4)Gal(b1-4)[Fuc(a1-3)]GlcNAc", "method_in_brief": "as §1"}, "[9]": {"target": "Fuc(a1-3)[Gal(b1-4)]GlcNAc(b1-4)Gal(b1-4)[Fuc(a1-3)]GlcNAc(b1-4)Gal(b1-4)[Fuc(a1-3)]GlcNAc", "method_in_brief": "as §1"}, "[10]": {"target": "Fuc(a1-3)[Gal(b1-4)]GlcNAc(b1-6)GalNAc", "method_in_brief": "as §1"}, "[11]": {"target": "Fuc(a1-3)[Gal(b1-4)]GlcNAc(b1-6)[Gal(b1-3)GlcNAc(b1-3)]Gal(b1-4)Glc", "method_in_brief": "as §1"}, "[12]": {"target": "Fuc(a1-3)[Gal(b1-4)]GlcNAc6S", "method_in_brief": "as §1"}, "[13]": {"target": "Fuc(a1-3)[Gal3S(b1-4)]Glc", "method_in_brief": "as §1"}, "[14]": {"target": "Fuc(a1-3)[Gal3S(b1-4)]GlcNAc", "method_in_brief": "as §1"}, "[15]": {"target": "Fuc(a1-3)[Gal3S(b1-4)]GlcNAc6S", "method_in_brief": "as §1"}, "[16]": {"target": "Fuc(a1-3)[GalNAc(b1-4)]GlcNAc", "method_in_brief": "as §1"}, "[17]": {"target": "Fuc(a1-3)[GalNAc(b1-4)]GlcNAc6S", "method_in_brief": "as §1"}, "Fuc(a1-4)GlcNAc": {"target": "Fuc(a1-4)GlcNAc", "method_in_brief": "as §1"}, "Fuc(b1-3)GlcNAc": {"target": "Fuc(b1-3)GlcNAc", "method_in_brief": "as §1"}, "Gal(a1-2)Gal": {"target": "Gal(a1-2)Gal", "method_in_brief": "as §1"}, "Gal(a1-3)Gal": {"target": "Gal(a1-3)Gal", "method_in_brief": "as §1"}, "Gal(a1-3)Gal(b1-3)GlcNAc": {"target": "Gal(a1-3)Gal(b1-3)GlcNAc", "method_in_brief": "as §1"}, "[18]": {"target": "Gal(a1-3)Gal(b1-3)GlcNAc(b1-2)Man", "method_in_brief": "as §1"}, "[19]": {"target": "Gal(a1-3)Gal(b1-3)GlcNAc(b1-2)Man(a1-3)[Gal(a1-3)Gal(b1-3)GlcNAc(b1-2)Man(a1-6)]Man(b1-4)GlcNAc(b1-4)GlcNAc", "method_in_brief": "as §1"}, "[20]": {"target": "Gal(a1-3)Gal(b1-3)GlcNAc(b1-3)GalNAc", "method_in_brief": "as §1"}, "[21]": {"target": "Gal(a1-3)Gal(b1-3)GlcNAc(b1-6)GalNAc", "method_in_brief": "as §1"}, "[22]": {"target": "Gal(a1-3)Gal(b1-3)[Fuc(a1-4)]GlcNAc(b1-2)Man(a1-3)[Gal(a1-3)Gal(b1-3)[Fuc(a1-4)]GlcNAc(b1-2)Man(a1-6)]Man(b1-4)GlcNAc(b1-4)GlcNAc", "method_in_brief": "as §1"}, "Gal(a1-3)Gal(b1-4)Glc": {"target": "Gal(a1-3)Gal(b1-4)Glc", "method_in_brief": "as §1"}, "Gal(a1-3)Gal(b1-4)GlcNAc": {"target": "Gal(a1-3)Gal(b1-4)GlcNAc", "method_in_brief": "as §1"}, "[23]": {"target": "Gal(a1-3)Gal(b1-4)GlcNAc(b1-2)Man", "method_in_brief": "as §1"}, "[24]": {"target": "Gal(a1-3)Gal(b1-4)GlcNAc(b1-2)Man(a1-3)[Gal(a1-3)Gal(b1-4)GlcNAc(b1-2)Man(a1-6)]Man(b1-4)GlcNAc(b1-4)GlcNAc", "method_in_brief": "as §1"}, "[25]": {"target": "Gal(a1-3)Gal(b1-4)GlcNAc(b1-3)GalNAc", "method_in_brief": "as §1"}, "[26]": {"target": "Gal(a1-3)Gal(b1-4)GlcNAc(b1-6)GalNAc", "method_in_brief": "as §1"}, "[27]": {"target": "Gal(a1-3)Gal(b1-4)[Fuc(a1-3)]GlcNAc", "method_in_brief": "as §1"}, "[28]": {"target": "Gal(a1-3)Gal(b1-4)[Fuc(a1-3)]GlcNAc(b1-2)Man(a1-3)[Gal(a1-3)Gal(b1-4)[Fuc(a1-3)]GlcNAc(b1-2)Man(a1-6)]Man(b1-4)GlcNAc(b1-4)GlcNAc", "method_in_brief": "as §1"}, "Gal(a1-3)GalNAc": {"target": "Gal(a1-3)GalNAc", "method_in_brief": "as §1"}, "[29]": {"target": "Gal(a1-3)[Gal(a1-4)]Gal(b1-4)GlcNAc", "method_in_brief": "as §1"}, "[30]": {"target": "Gal(a1-4)Gal(b1-3)GlcNAc(b1-2)Man(a1-3)[Gal(a1-4)Gal(b1-3)GlcNAc(b1-2)Man(a1-6)]Man(b1-4)GlcNAc(b1-4)GlcNAc", "method_in_brief": "as §1"}, "Gal(a1-4)Gal(b1-4)Glc": {"target": "Gal(a1-4)Gal(b1-4)Glc", "method_in_brief": "as §1"}, "Gal(a1-4)Gal(b1-4)GlcNAc": {"target": "Gal(a1-4)Gal(b1-4)GlcNAc", "method_in_brief": "as §1"}, "[31]": {"target": "Gal(a1-4)Gal(b1-4)GlcNAc(b1-2)Man(a1-3)[Gal(a1-4)Gal(b1-4)GlcNAc(b1-2)Man(a1-6)]Man(b1-4)GlcNAc(b1-4)GlcNAc", "method_in_brief": "as §1"}, "[32]": {"target": "Gal(a1-4)Gal(b1-4)GlcNAc(b1-3)Gal(b1-4)Glc", "method_in_brief": "as §1"}, "Gal(a1-4)GlcNAc": {"target": "Gal(a1-4)GlcNAc", "method_in_brief": "as §1"}, "Gal(a1-6)Glc": {"target": "Gal(a1-6)Glc", "method_in_brief": "as §1"}, "Gal(b1-2)Gal": {"target": "Gal(b1-2)Gal", "method_in_brief": "as §1"}}, "note": "Some of the results follow."}
{"binder": "B1", "values": [{"measurement": "glycan array binding signal (z-score)", "setting": "[1]", "result": -0.329}, {"measurement": "glycan array binding signal (z-score)", "setting": "[2]", "result": -0.361}, {"measurement": "glycan array binding signal (z-score)", "setting": "[3]", "result": -0.365}, {"measurement": "glycan array binding signal (z-score)", "setting": "[4]", "result": -0.141}, {"measurement": "glycan array binding signal (z-score)", "setting": "[5]", "result": 0.103}, {"measurement": "glycan array binding signal (z-score)", "setting": "[6]", "result": -0.25}, {"measurement": "glycan array binding signal (z-score)", "setting": "[7]", "result": 0.128}, {"measurement": "glycan array binding signal (z-score)", "setting": "[8]", "result": -0.152}, {"measurement": "glycan array binding signal (z-score)", "setting": "[9]", "result": -0.264}, {"measurement": "glycan array binding signal (z-score)", "setting": "[10]", "result": -0.167}, {"measurement": "glycan array binding signal (z-score)", "setting": "[11]", "result": -0.684}, {"measurement": "glycan array binding signal (z-score)", "setting": "[12]", "result": -0.189}, {"measurement": "glycan array binding signal (z-score)", "setting": "[13]", "result": 0.042}, {"measurement": "glycan array binding signal (z-score)", "setting": "[14]", "result": -0.127}, {"measurement": "glycan array binding signal (z-score)", "setting": "[15]", "result": -0.329}, {"measurement": "glycan array binding signal (z-score)", "setting": "[16]", "result": -0.303}, {"measurement": "glycan array binding signal (z-score)", "setting": "[17]", "result": -0.22}, {"measurement": "glycan array binding signal (z-score)", "setting": "Fuc(a1-4)GlcNAc", "result": -0.285}, {"measurement": "glycan array binding signal (z-score)", "setting": "Fuc(b1-3)GlcNAc", "result": -0.36}, {"measurement": "glycan array binding signal (z-score)", "setting": "Gal(a1-2)Gal", "result": -0.685}, {"measurement": "glycan array binding signal (z-score)", "setting": "Gal(a1-3)Gal", "result": 0.369}, {"measurement": "glycan array binding signal (z-score)", "setting": "Gal(a1-3)Gal(b1-3)GlcNAc", "result": 0.751}, {"measurement": "glycan array binding signal (z-score)", "setting": "[18]", "result": 1.4}, {"measurement": "glycan array binding signal (z-score)", "setting": "[19]", "result": 0.195}, {"measurement": "glycan array binding signal (z-score)", "setting": "[20]", "result": -0.375}, {"measurement": "glycan array binding signal (z-score)", "setting": "[21]", "result": -0.038}, {"measurement": "glycan array binding signal (z-score)", "setting": "[22]", "result": 2.46}, {"measurement": "glycan array binding signal (z-score)", "setting": "Gal(a1-3)Gal(b1-4)Glc", "result": 0.23}, {"measurement": "glycan array binding signal (z-score)", "setting": "Gal(a1-3)Gal(b1-4)GlcNAc", "result": -0.225}, {"measurement": "glycan array binding signal (z-score)", "setting": "[23]", "result": 1.11}, {"measurement": "glycan array binding signal (z-score)", "setting": "[24]", "result": 0.227}, {"measurement": "glycan array binding signal (z-score)", "setting": "[25]", "result": -0.615}, {"measurement": "glycan array binding signal (z-score)", "setting": "[26]", "result": -0.025}, {"measurement": "glycan array binding signal (z-score)", "setting": "[27]", "result": -0.429}, {"measurement": "glycan array binding signal (z-score)", "setting": "[28]", "result": 1.84}, {"measurement": "glycan array binding signal (z-score)", "setting": "Gal(a1-3)GalNAc", "result": -0.359}, {"measurement": "glycan array binding signal (z-score)", "setting": "[29]", "result": 0.449}, {"measurement": "glycan array binding signal (z-score)", "setting": "[30]", "result": -0.475}, {"measurement": "glycan array binding signal (z-score)", "setting": "Gal(a1-4)Gal(b1-4)Glc", "result": -0.357}, {"measurement": "glycan array binding signal (z-score)", "setting": "Gal(a1-4)Gal(b1-4)GlcNAc", "result": -0.598}, {"measurement": "glycan array binding signal (z-score)", "setting": "[31]", "result": -0.205}, {"measurement": "glycan array binding signal (z-score)", "setting": "[32]", "result": -0.313}, {"measurement": "glycan array binding signal (z-score)", "setting": "Gal(a1-4)GlcNAc", "result": -0.406}, {"measurement": "glycan array binding signal (z-score)", "setting": "Gal(a1-6)Glc", "result": -0.008}, {"measurement": "glycan array binding signal (z-score)", "setting": "Gal(b1-2)Gal", "result": -0.585}]}
